Measured data: PubChem BioAssay AID1259308 (NCATS, 2017)
Shown is a random part of about 59,000 reagents. Over the whole deposit, about 1,510 (2.6%) were called active. 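Calls use total luciferase alone and ignore viability, so some active siRNAs may act by altering cell number.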 Unmarked entries are inactive. Reagents against one gene are numbered here. Not all columns of the deposit are shown.

Assay: 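Genes whose loss raises luciferase production in HEK293 cells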 (primary screen)
Cell system: human HEK293 embryonic kidney cells stably expressing firefly luciferase (HEK-CMV-Luc2-Hygro)
Reagent: single siRNA against human genes, 0.8 pmol siRNA per well
Duration: 72 h
Measurement: 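Luciferase light (ONE-Glo) measured on one replicate plate set and viability (CellTiter-Glo) on the other, scaled to a negative control siRNA, with robust z-scores and luciferase per cell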
Direction: total luciferase, z-score and total luciferase, % of control: higher = more reporter protein produced
Active means: 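An siRNA counts as active if its total luciferase robust z-score exceeds 3; genes with two or more such siRNAs out of three were retested with fresh siRNAs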
Calls: active = raised luciferase; inactive = no rise

FRK #1 scored total luciferase, z-score -0.594; total luciferase, % of control 70.1.
After knock-down of FRK #2, the screen gave total luciferase, z-score -0.0931; total luciferase, % of control 80.
With knock-down of FRK #3, the record shows total luciferase, z-score 0.805; total luciferase, % of control 97.9.
After knock-down of SNRPD3 #1, the record shows total luciferase, z-score 6.41 (active); total luciferase, % of control 209.
For SNRPD3 #2 the deposit lists total luciferase, z-score 2.67; total luciferase, % of control 135.
Against SNRPD3 #3, the entry reads total luciferase, z-score 1.79; total luciferase, % of control 117.
With knock-down of LOC644277 #1, the record shows total luciferase, z-score -2.76; total luciferase, % of control 26.9.
LOC644277 #2 scored total luciferase, z-score -0.241; total luciferase, % of control 77.1.
Knock-down of LOC644277 #3 gave: total luciferase, z-score 0.604; total luciferase, % of control 93.9.
SLC22A10 #1 showed total luciferase, z-score -0.294; total luciferase, % of control 76.
Silencing of SLC22A10 #2 resulted in: total luciferase, z-score 0.466; total luciferase, % of control 91.2.
SLC22A10 #3 showed total luciferase, z-score 0.572; total luciferase, % of control 93.3.
ZNF518A #1 showed total luciferase, z-score -0.561; total luciferase, % of control 70.7.
ZNF518A #2 gave total luciferase, z-score 0.472; total luciferase, % of control 91.3.
With knock-down of ZNF518A #3, the record shows total luciferase, z-score 0.93; total luciferase, % of control 100.
HTR2B #1 scored total luciferase, z-score 0.344; total luciferase, % of control 88.7.
Silencing of HTR2B #2 came out at: total luciferase, z-score 1.46; total luciferase, % of control 111.
HTR2B #3 showed total luciferase, z-score 2.18; total luciferase, % of control 125.
C1GALT1 #1 showed total luciferase, z-score 0.487; total luciferase, % of control 91.6.
With knock-down of C1GALT1 #2, the screen gave total luciferase, z-score -0.747; total luciferase, % of control 67.
C1GALT1 #3 showed total luciferase, z-score -1.45; total luciferase, % of control 53.1.
After knock-down of XPO4 #1 the results were total luciferase, z-score 0.764; total luciferase, % of control 97.1.
With knock-down of XPO4 #2, the record shows total luciferase, z-score -0.417; total luciferase, % of control 73.6.
After knock-down of XPO4 #3, the screen gave total luciferase, z-score 2.54; total luciferase, % of control 132.
Silencing of H2AP #1 gave: total luciferase, z-score 1.57; total luciferase, % of control 113.
Against H2AP #2, the entry reads total luciferase, z-score -0.0625; total luciferase, % of control 80.6.
Against H2AP #3, the values are total luciferase, z-score -0.289; total luciferase, % of control 76.1.
Depletion of C14orf93 #1 gave: total luciferase, z-score 0.39; total luciferase, % of control 89.6.
After knock-down of C14orf93 #2, the record shows total luciferase, z-score 0.237; total luciferase, % of control 86.6.
For C14orf93 #3, the entry reads total luciferase, z-score -0.881; total luciferase, % of control 64.4.
ATAD2 #1 gave total luciferase, z-score -0.251; total luciferase, % of control 76.9.
For ATAD2 #2 the deposit lists total luciferase, z-score -0.751; total luciferase, % of control 67.
ATAD2 #3 scored total luciferase, z-score 0.491; total luciferase, % of control 91.7.
